Measurements reported in publication PMC5966407.
Substitutions are numbered along the chain they refer to. Results are given in words; binding and its absence hold for the method and conditions named. Some binding calls cover weakened binding; strength is not graded here. Tags and fused reporters may be left off the sequences shown.

Tests used:
Assay in all cases: two-hybrid; RAD1 variants in pGBKT7, RAD10 and SLX4 in pGADT7; plasmids in opposite mating types, mated to diploids
[1] = target: T1, Rad1 in pGBKT7 (two-hybrid fusion) (S. cerevisiae) (UniProt P06777)
T1 sequence: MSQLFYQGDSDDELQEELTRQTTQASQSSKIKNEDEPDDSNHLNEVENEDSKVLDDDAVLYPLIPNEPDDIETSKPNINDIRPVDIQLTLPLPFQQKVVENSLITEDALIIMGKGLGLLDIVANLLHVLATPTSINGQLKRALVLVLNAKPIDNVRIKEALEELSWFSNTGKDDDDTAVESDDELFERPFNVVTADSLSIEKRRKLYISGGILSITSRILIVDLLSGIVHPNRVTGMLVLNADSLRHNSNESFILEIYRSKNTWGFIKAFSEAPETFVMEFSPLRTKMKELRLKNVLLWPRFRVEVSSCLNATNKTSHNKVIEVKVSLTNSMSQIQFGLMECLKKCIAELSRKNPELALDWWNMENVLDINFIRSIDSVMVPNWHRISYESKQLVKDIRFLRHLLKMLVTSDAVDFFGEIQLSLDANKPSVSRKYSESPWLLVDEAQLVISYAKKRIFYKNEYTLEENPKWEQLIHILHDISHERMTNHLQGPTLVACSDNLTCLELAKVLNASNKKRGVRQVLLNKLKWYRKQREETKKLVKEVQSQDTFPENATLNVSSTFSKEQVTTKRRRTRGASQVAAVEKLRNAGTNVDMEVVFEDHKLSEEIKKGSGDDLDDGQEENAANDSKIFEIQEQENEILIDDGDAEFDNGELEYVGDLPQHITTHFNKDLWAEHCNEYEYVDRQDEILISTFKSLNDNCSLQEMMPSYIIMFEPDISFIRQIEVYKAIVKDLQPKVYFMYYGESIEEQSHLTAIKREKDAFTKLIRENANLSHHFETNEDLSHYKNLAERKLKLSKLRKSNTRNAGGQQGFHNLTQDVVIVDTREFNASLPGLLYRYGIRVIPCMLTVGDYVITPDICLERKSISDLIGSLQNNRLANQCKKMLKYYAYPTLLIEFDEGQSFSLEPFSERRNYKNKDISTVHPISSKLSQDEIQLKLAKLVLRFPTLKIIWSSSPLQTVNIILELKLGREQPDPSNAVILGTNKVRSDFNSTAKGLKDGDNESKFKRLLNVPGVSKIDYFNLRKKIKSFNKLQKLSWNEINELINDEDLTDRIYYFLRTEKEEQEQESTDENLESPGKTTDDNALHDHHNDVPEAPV

[2] = target: T2, rad1-E349K in pGBKT7 (two-hybrid fusion) (S. cerevisiae) (UniProt P06777)
T2 sequence: T1 sequence with E349K

[3] = target: T3, rad1-E706K in pGBKT7 (two-hybrid fusion) (S. cerevisiae) (UniProt P06777)
T3 sequence: T1 sequence with E706K

Measured: binding

Slx4 in pGADT7 (two-hybrid fusion) (from UniProt Q12098 1-748)
binds: [1] | [2] | [3]
